Assay results from PubChem BioAssay AID220 (DTP/NCI, 2004).
The list shows only some results of the screen, not a fair sample: it is rich in T/C values a quarter to a half above the control, in often repeated tests (any T/C) and in doses without a T/C. Other doses and runs of a compound stand elsewhere. T/C: endpoint of the treated group in % of that of the vehicle group. Schedule codes are those of the source, taken here to give the interval after Q, in days (D) or hours (H), and the number of doses after X. Some T/C values are negative: the treated tumours shrank. Some entries were tested several times; the values are given in rising order. Some T/C values are followed by the survivors on the day toxicity was checked, most often the fifth; without a count, all were alive then. Some doses have a count of surviving animals in place of a T/C: the source holds a T/C of zero for them, seemingly a mark for toxic or unscored doses. Survivors were counted at the toxicity check, usually on the fifth day, unless a day is given; later deaths do not show. Additions like (4×) say how often a value occurs here. Residues, ends and D or L forms follow the SMILES beside them. *: point of attachment. Trt = c1ccc(C(c2ccccc2)(c2ccccc2)*)cc1; Cbz = O=C(OCc1ccccc1)*

System: CD8F1 mice, subcutaneous mammary adenocarcinoma, T/C%
Test: NCI In Vivo Anticancer Drug Screen. Data for tumor model Mammary Adenocarcinoma CD8F1 (subcutaneous) in CD8F1
Conditions: higher T/C = larger tumour
In short: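 Antitumor activity is assessed in transplantable-tumor mice by comparing the treated group with a vehicle-treated control group. Survival or tumor size serves as the measure, reported as T divided by C.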

[1] = T/C endpoint: median tumor weight (est.), dose: 100.0 mg/kg/injection, schedule: Q07DX005 (ip), vehicle: saline with Tween-80
[2] = T/C endpoint: median tumor weight (est.), dose: 400.0 mg/kg/injection, schedule: Q07DX005 (ip), vehicle: suspension in saline
[3] = T/C endpoint: median tumor weight change, dose: 500.0 mg/kg/injection, schedule: Q01DX001 (ip), vehicle: saline with Tween-80
[4] = T/C endpoint: median tumor weight change, dose: 1000.0 mg/kg/injection, schedule: Q01DX001 (ip), vehicle: saline with Tween-80

Structure (SMILES): CC(C)=CCNc1ncnc2c1ncn2C1OC(CO)C(O)C1O (stereo not drawn)
- survivor count (T/C endpoint: median tumor weight (est.), dose: 400.0 mg/kg/injection, schedule: Q07DX005 (ip), vehicle: saline with Tween-80): 1 of 10 on day 30

Structure (SMILES): O=S1(=O)C=C(c2ccccc2)C(c2ccccc2)=C1
- T/C (T/C endpoint: median tumor weight (est.), dose: 12.5 mg/kg/injection, schedule: Q07DX005 (ip), vehicle: saline with Tween-80, evaluated on day 30): 138 % of control [8 of 10 alive on day 30]
- survivor count [1]: 0 of 10 on day 30
- survivor count (T/C endpoint: median tumor weight (est.), dose: 200.0 mg/kg/injection, schedule: Q07DX005 (ip), vehicle: saline with Tween-80): 0 of 10 on day 30

Structure (SMILES): O=P1(N(CCCl)CCCl)NCCCO1 (stereo not drawn)
- survivor count (T/C endpoint: mean tumor weight, dose: 80.0 mg/kg/injection, schedule: Q01DX018 (ip), vehicle: saline): 4 of 10
- survivor count (T/C endpoint: median tumor weight (est.), dose: 150.0 mg/kg/injection, schedule: Q07DX005 (ip), vehicle: saline): 1 of 10 on day 30
- survivor count (T/C endpoint: median tumor weight (est.), dose: 375.0 mg/kg/injection, schedule: Q01DX001 (ip), vehicle: saline): 3 of 10 on day 31
- T/C (T/C endpoint: median tumor weight change, dose: 167.0 mg/kg/injection, schedule: Q01DX001 (ip), vehicle: saline, evaluated on day 29): -7 % of control
- T/C (T/C endpoint: median tumor weight change, dose: 167.0 mg/kg/injection, schedule: Q01DX001 (ip), vehicle: saline, evaluated on day 30): 3 % of control
- T/C (T/C endpoint: median tumor weight change, dose: 167.0 mg/kg/injection, schedule: Q01DX001 (ip), vehicle: saline, evaluated on day 33): -67 and -61 % of control
- survivor count (T/C endpoint: median tumor weight change, dose: 167.0 mg/kg/injection, schedule: Q01DX001 (ip), vehicle: saline): 1 of 9 on day 31 and 6 of 10 on day 36
- T/C (T/C endpoint: median tumor weight change, dose: 250.0 mg/kg/injection, schedule: Q01DX001 (ip), vehicle: saline, evaluated on day 29): -54 % of control
- T/C (T/C endpoint: median tumor weight change, dose: 250.0 mg/kg/injection, schedule: Q01DX001 (ip), vehicle: saline, evaluated on day 30): -46 % of control
- T/C (T/C endpoint: median tumor weight change, dose: 250.0 mg/kg/injection, schedule: Q01DX001 (ip), vehicle: saline, evaluated on day 33): -72 and -71 % of control
- survivor count (T/C endpoint: median tumor weight change, dose: 375.0 mg/kg/injection, schedule: Q01DX001 (ip), vehicle: saline): 3 of 10 on day 30
- survivor count (T/C endpoint: median tumor weight change, dose: 400.0 mg/kg/injection, schedule: Q01DX001 (ip), vehicle: saline): 1 of 10 on day 37

Structure (SMILES): CN(C)c1ccc(C(=C2C=CC(=[N+](C)C)C=C2)c2ccc(N(C)C)cc2)cc1 (tested in a mixture with another compound)
- survivor count (T/C endpoint: median tumor weight change, dose: 10.0 mg/kg/injection, schedule: Q01DX001 (ip), vehicle: saline with Tween-80): 3 of 10 on day 28
- survivor count (T/C endpoint: median tumor weight change, dose: 12.5 mg/kg/injection, schedule: Q01DX001 (ip), vehicle: saline with Tween-80): 0 of 10 on day 36
- survivor count (T/C endpoint: median tumor weight change, dose: 20.0 mg/kg/injection, schedule: Q01DX001 (ip), vehicle: saline with Tween-80): 0 of 10 on day 28
- survivor count (T/C endpoint: median tumor weight change, dose: 25.0 mg/kg/injection, schedule: Q01DX001 (ip), vehicle: saline with Tween-80): 0 of 10 on day 36
- survivor count (T/C endpoint: median tumor weight change, dose: 40.0 mg/kg/injection, schedule: Q01DX001 (ip), vehicle: saline with Tween-80): 0 of 10 on day 28
- survivor count (T/C endpoint: median tumor weight change, dose: 50.0 mg/kg/injection, schedule: Q01DX001 (ip), vehicle: saline with Tween-80): 0 of 10 on day 36
- survivor count (T/C endpoint: median tumor weight change, dose: 100.0 mg/kg/injection, schedule: Q01DX001 (ip), vehicle: saline with Tween-80): 0 of 10 on day 36

Structure (SMILES): C[C@]12C=CC(=O)C=C1CC[C@@H]1[C@@H]2[C@@H](O)C[C@@]2(C)[C@H]1CC[C@]2(O)C(=O)CO
- survivor count (T/C endpoint: median tumor weight change, dose: 1600.0 mg/kg/injection, schedule: Q01DX001 (ip), vehicle: Klucel (hydroxypropylcellulose) (HPC)): 5 of 10 on day 30

Structure (SMILES): CN(C)c1ccc2c(NCCCCCCNc3ccnc4cc(N(C)C)ccc34)ccnc2c1
- T/C (T/C endpoint: median tumor weight change, dose: 62.0 mg/kg/injection, schedule: Q01DX001 (ip), vehicle: distilled water + Tween-80 + alcohol, evaluated on day 31): 130 % of control
- survivor count (T/C endpoint: median tumor weight change, dose: 125.0 mg/kg/injection, schedule: Q01DX001 (ip), vehicle: distilled water + Tween-80 + alcohol): 6 of 10 on day 56
- survivor count (T/C endpoint: median tumor weight change, dose: 125.0 mg/kg/injection, schedule: Q01DX001 (ip), vehicle: distilled water + Tween-80): 5 of 10 on day 31
- survivor count (T/C endpoint: median tumor weight change, dose: 250.0 mg/kg/injection, schedule: Q01DX001 (ip), vehicle: distilled water + Tween-80): 3 of 10 on day 31
- survivor count (T/C endpoint: median tumor weight change, dose: 500.0 mg/kg/injection, schedule: Q01DX001 (ip), vehicle: distilled water + Tween-80 + alcohol): 1 of 10 on day 31
- survivor count (T/C endpoint: median tumor weight change, dose: 500.0 mg/kg/injection, schedule: Q01DX001 (ip), vehicle: distilled water + Tween-80): 1 of 10 on day 31

Structure (SMILES): O=Cc1ccc(O)c(O)c1
- T/C (T/C endpoint: median tumor weight (est.), dose: 25.0 mg/kg/injection, schedule: Q07DX005 (ip), vehicle: suspension in saline, evaluated on day 30): 147 % of control [9 of 10 alive on day 30]
- T/C (T/C endpoint: median tumor weight (est.), dose: 50.0 mg/kg/injection, schedule: Q07DX005 (ip), vehicle: suspension in saline, evaluated on day 30): 131 % of control
- T/C (T/C endpoint: median tumor weight (est.), dose: 200.0 mg/kg/injection, schedule: Q07DX005 (ip), vehicle: suspension in saline, evaluated on day 30): 137 % of control [9 of 10 alive on day 30]
- survivor count [2]: 6 of 10 on day 30
- survivor count (T/C endpoint: median tumor weight (est.), dose: 800.0 mg/kg/injection, schedule: Q07DX005 (ip), vehicle: suspension in saline): 0 of 10 on day 30

Structure (SMILES): COC(=O)C[C@](O)(CCC(C)(C)O)C(=O)O[C@@H]1C(OC)=C[C@]23CCCN2CCc2cc4c(cc2[C@H]13)OCO4
- survivor count (T/C endpoint: median tumor weight change, dose: 10.0 mg/kg/injection, schedule: Q01DX001 (ip), vehicle: saline): 4 of 10 on day 35
- survivor count (T/C endpoint: median tumor weight change, dose: 20.0 mg/kg/injection, schedule: Q01DX001 (ip), vehicle: saline): 0 of 10 on day 35 and 1 of 10 on day 28

Structure (SMILES): COC(=O)C(CSC(c1ccccc1)(c1ccccc1)c1ccccc1)NC(=O)C(CC(N)=O)NC(=O)OCc1ccccc1 (stereo not drawn) (Cbz-Asn-Cys(Trt)-OMe; configuration not given here)
- T/C (T/C endpoint: median tumor weight change, dose: 500.0 mg/kg/injection, schedule: Q01DX001 (ip), vehicle: distilled water + Tween-80, evaluated on day 28): 148 % of control

Structure (SMILES): CC1(C)CC(=O)C(CSC(=O)c2ccccc2)C(=O)C1
- T/C (T/C endpoint: median tumor weight (est.), dose: 12.5 mg/kg/injection, schedule: Q07DX005 (ip), vehicle: Klucel (hydroxypropylcellulose) (HPC), evaluated on day 30): 144 % of control
- T/C (T/C endpoint: median tumor weight (est.), dose: 25.0 mg/kg/injection, schedule: Q07DX005 (ip), vehicle: Klucel (hydroxypropylcellulose) (HPC), evaluated on day 30): 130 % of control [9 of 10 alive on day 30]
- survivor count (T/C endpoint: median tumor weight (est.), dose: 200.0 mg/kg/injection, schedule: Q07DX005 (ip), vehicle: saline): 2 of 10 on day 30

Structure (SMILES): Cc1ccc2c(c1)N=C(Nc1ccccc1)N=S2(C)=O (stereo not drawn)
- survivor count (T/C endpoint: median tumor weight change, dose: 62.5 mg/kg/injection, schedule: Q01DX001 (ip), vehicle: saline with Tween-80): 6 of 10 on day 43
- survivor count (T/C endpoint: median tumor weight change, dose: 125.0 mg/kg/injection, schedule: Q01DX001 (ip), vehicle: saline with Tween-80): 5 of 10 on day 36 and 5 of 10 on day 43
- survivor count [3]: 5 of 10 on day 43 and 6 of 10 on day 26
- survivor count [4]: 0 of 10 on day 26 and 1 of 10 on day 43

Structure (SMILES): CC1(C)COCN1COC1CCCCC1
- T/C (T/C endpoint: median tumor weight change, dose: 125.0 mg/kg/injection, schedule: Q01DX001 (ip), vehicle: saline with Tween-80, evaluated on day 31): 145 % of control
- survivor count (T/C endpoint: median tumor weight change, dose: 250.0 mg/kg/injection, schedule: Q01DX001 (ip), vehicle: saline with Tween-80): 0 of 10 on day 32 and 3 of 10 on day 31
- survivor count [3]: 0 of 10 on day 31 and 0 of 10 on day 32
- survivor count [4]: 0 of 10 on day 31 and 0 of 10 on day 32
- survivor count (T/C endpoint: median tumor weight change, dose: 2000.0 mg/kg/injection, schedule: Q01DX001 (ip), vehicle: saline with Tween-80): 0 of 10 on day 31 and 0 of 10 on day 32

Structure (SMILES): O=c1n(CC2CO2)c(=O)n(CC2CO2)c(=O)n1CC1CO1 (stereo not drawn)
- survivor count (T/C endpoint: median tumor weight (est.), dose: 100.0 mg/kg/injection, schedule: Q07DX004 (ip), vehicle: saline with Tween-80): 3 of 10 on day 30
- survivor count [1]: 6 of 10 on day 30
- survivor count (T/C endpoint: median tumor weight (est.), dose: 100.0 mg/kg/injection, schedule: Q07DX005 (ip), vehicle: suspension in saline): 0 of 10 on day 30 and 6 of 10 on day 30
- survivor count (T/C endpoint: median tumor weight (est.), dose: 200.0 mg/kg/injection, schedule: Q07DX005 (ip), vehicle: suspension in saline): 0 of 10 on day 30 and 4 of 10 on day 30
- survivor count [2]: 0 of 10 on day 30 (2×)

Structure (SMILES): NC(=O)NO
- T/C (T/C endpoint: median tumor weight (est.), dose: 50.0 mg/kg/injection, schedule: Q07DX005 (ip), vehicle: saline, evaluated on day 30): 133 % of control

Structure (SMILES): NC(=O)Oc1cccc(OC(N)=O)c1
- T/C (T/C endpoint: mean tumor weight, dose: 25.0 mg/kg/injection, schedule: Q07DX006 (ip), vehicle: water, evaluated on day 42): 141 % of control
- T/C (T/C endpoint: median tumor weight (est.), dose: 100.0 mg/kg/injection, schedule: Q07DX005 (ip), vehicle: water, evaluated on day 30): 128 % of control
